Source: PMC8200294
Results are given in words; binding and its absence hold for the method and conditions named. In cells and extracts the contact can be indirect. Some binding calls cover weakened binding; strength is not graded here.

Protein sequences, listed by entry. Tags and fused reporters are not part of them. Lines headed by an entry give the natural chain unless they say otherwise; changes in a name come on top. Residues count along the entry.
UniProt P19022, residues 160-906: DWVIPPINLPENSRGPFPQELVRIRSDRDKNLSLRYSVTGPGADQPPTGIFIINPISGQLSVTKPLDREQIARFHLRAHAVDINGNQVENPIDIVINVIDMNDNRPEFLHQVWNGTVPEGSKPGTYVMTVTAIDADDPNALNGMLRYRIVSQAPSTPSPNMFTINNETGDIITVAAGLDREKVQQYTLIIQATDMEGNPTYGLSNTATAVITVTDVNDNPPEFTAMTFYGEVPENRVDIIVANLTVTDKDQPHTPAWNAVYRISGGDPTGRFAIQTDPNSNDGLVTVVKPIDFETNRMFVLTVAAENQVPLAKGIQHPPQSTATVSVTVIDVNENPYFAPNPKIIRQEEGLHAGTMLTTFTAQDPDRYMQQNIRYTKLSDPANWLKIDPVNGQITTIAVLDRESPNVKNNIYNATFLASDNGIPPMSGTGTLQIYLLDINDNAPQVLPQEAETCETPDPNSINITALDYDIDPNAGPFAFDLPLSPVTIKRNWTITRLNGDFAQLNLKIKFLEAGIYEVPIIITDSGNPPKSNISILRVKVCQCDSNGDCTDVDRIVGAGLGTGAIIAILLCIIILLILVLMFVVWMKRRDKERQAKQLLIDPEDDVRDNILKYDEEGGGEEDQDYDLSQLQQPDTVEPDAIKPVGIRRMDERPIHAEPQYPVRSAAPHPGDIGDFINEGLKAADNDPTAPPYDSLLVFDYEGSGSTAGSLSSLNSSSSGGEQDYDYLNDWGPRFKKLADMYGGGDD
UniProt P17302: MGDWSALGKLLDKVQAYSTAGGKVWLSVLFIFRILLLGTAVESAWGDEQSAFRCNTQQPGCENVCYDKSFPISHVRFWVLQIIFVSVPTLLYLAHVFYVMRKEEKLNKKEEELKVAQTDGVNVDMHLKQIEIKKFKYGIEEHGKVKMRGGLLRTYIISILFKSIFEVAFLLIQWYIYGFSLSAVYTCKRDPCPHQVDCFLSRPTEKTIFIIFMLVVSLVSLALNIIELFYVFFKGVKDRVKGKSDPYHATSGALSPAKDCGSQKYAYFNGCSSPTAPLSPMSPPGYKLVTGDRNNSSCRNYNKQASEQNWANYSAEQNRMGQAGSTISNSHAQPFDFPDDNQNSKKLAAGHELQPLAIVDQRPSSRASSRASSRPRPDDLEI

Key:
[1] = target: N-cadherin (CDH2), endogenous (human (endogenous in MDA-MB-231, T47D, human BM-MSCs, BM stroma and BM biopsy)) (UniProt P19022); experiment: co-IP; whole-cell lysates of BM-MSCs or BM stromal cells; IP with anti-CDH2 or IgG; blot with anti-Cx43
[2] = target: N-cadherin (CDH2), endogenous (human (endogenous in MDA-MB-231, T47D, human BM-MSCs, BM stroma and BM biopsy)) (UniProt P19022); experiment: co-IP; whole-cell lysates of unsorted breast cancer cells (MDA-MB-231, T47D); IP with anti-CDH2 or anti-Cx43 (IgG control) overnight at 4°C, magnetic beads, five washes in lysis buffer (50 mM Tris-HCl pH 7.4, 100 mM NaCl, 2 mM MgCl2, 10% glycerol, 1% NP-40); blot for Cx43 or CDH2

binding [1]: binds | binding [2]: binds weakly
Substance: connexin 43 (Cx43), endogenous (from UniProt P17302 1-382)
